# In the supplement of paper PMC4604168 (melanoma cell lines):
# Some of the results follow. Many values rest on one well or one pass, so single values are uncertain.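 Imaging used 1,536-well plates; nuclei positive for cleaved PARP by antibody were divided by total DNA-stained nuclei to yield the apoptosis fraction. Doses for screening kept most cells viable, and cell lines differ markedly in resting and induced cleaved-PARP levels.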
# What was measured:
# Assay in all cases: cleaved PARP positive nuclei fraction relative to DMSO control; melanoma cells; higher = more apoptosis
# Settings in all cases: library dose: low library concentration; 72 h
# MZ2-MEL = tested on: MZ2-MEL
# MeWo = tested on: MeWo
# RPMI7951 = tested on: RPMI7951
# RVH-421 = tested on: RVH-421
# SkMel28 = tested on: SkMel28
# SkMel2 = tested on: SkMel2
# SkMel30 = tested on: SkMel30
# SkMel5 = tested on: SkMel5
# UACC257 = tested on: UACC257
# UACC62 = tested on: UACC62
# WM115 = tested on: WM115
# WM1716 = tested on: WM1716
# WM1745 = tested on: WM1745
# WM3526 = tested on: WM3526
# WM3619 = tested on: WM3619
# WM451Lu = tested on: WM451Lu
Structure (SMILES),cleaved PARP positive nuclei fraction (MZ2-MEL) [%],cleaved PARP positive nuclei fraction (MeWo) [%],cleaved PARP positive nuclei fraction (RPMI7951) [%],cleaved PARP positive nuclei fraction (RVH-421) [%],cleaved PARP positive nuclei fraction (SkMel28) [%],cleaved PARP positive nuclei fraction (SkMel2) [%],cleaved PARP positive nuclei fraction (SkMel30) [%],cleaved PARP positive nuclei fraction (SkMel5) [%],cleaved PARP positive nuclei fraction (UACC257) [%],cleaved PARP positive nuclei fraction (UACC62) [%],cleaved PARP positive nuclei fraction (WM115) [%],cleaved PARP positive nuclei fraction (WM1716) [%],cleaved PARP positive nuclei fraction (WM1745) [%],cleaved PARP positive nuclei fraction (WM3526) [%],cleaved PARP positive nuclei fraction (WM3619) [%],cleaved PARP positive nuclei fraction (WM451Lu) [%]
"C#Cc1cccc(Nc2ncnc3cc(OCCOC)c(OCCOC)cc23)c1 [erlotinib] + COc1cc2c(Oc3ccc4[nH]c(C)cc4c3F)ncnc2cc1OCCCN1CCCC1 [cediranib] (first compound 0.8 µM, partner dose 0.4 µM)",82.2,106,108,33.7,190,136,75.2,22,63.2,66.3,108,14.9,106,60.7,92.4,68.5
"C=CCNC1=C2C[C@@H](C)C[C@H](OC)[C@H](O)[C@@H](C)/C=C(\C)[C@H](OC(N)=O)[C@@H](OC)/C=C\C=C(/C)C(=O)NC(=CC1=O)C2=O [Tanespimycin] + O=c1cc(-c2cccc3c2Sc2ccccc2S3)oc(N2CCOCC2)c1 [KU55933] (first compound 0.002 µM, partner dose 1 µM)",185,55.7,347,130,153,102,83.5,141,53.1,137,202,221,124,96.2,164,115
"COCC[n+]1c2c(n(Cc3cnccn3)c1C)C(=O)c1ccccc1C2=O + CO[C@@H]1[C@H](N(C)C(=O)c2ccccc2)C[C@H]2O[C@]1(C)n1c3ccccc3c3c4c(c5c6ccccc6n2c5c31)C(=O)NC4 [Midostaurin] (first compound 0.0004 µM, partner dose 0.08 µM)",621,257,163,271,93,273,88.4,117,88.6,51.2,98.4,116,82.4,70.9,110,288
"CC(=O)c1c(C)c2cnc(Nc3ccc(N4CCNCC4)cn3)nc2n(C2CCCC2)c1=O [palbociclib] + Oc1cc(-c2nc(-c3ccccc3)[nH]c2-c2ccncc2)ccc1Cl [L779450] (first compound 0.04 µM, partner dose 0.2 µM)",107,36.1,138,222,177,106,98.3,104,283,209,110,72.6,770,274,124,114
